PubChem BioAssay AID493014 (National Center for Advancing Translational Sciences (NCATS), 2011)
Some of the results follow. These are further read-outs of the screen, such as a control signal, another cell line or another target. No call is given for them. Most of these compounds were active or inconclusive in the main read-out, so they are no random draw. Potencies come from curve fits of mixed quality, noted in brackets.

Assay: qHTS Assay to Find Inhibitors of Chronic Active B-Cell Receptor Signaling
Settings: ABC-DLBCL IkBa-CBG/CBR reporter, luminescence ratio (green luciferase fused to IkBa over red control in TMD8 lymphoma cells), 4 h
Method in brief: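 Compounds up to 46 uM were incubated four hours with TMD8 cells whose green CBG68 luciferase is fused to IkappaBalpha; red CBR luminescence normalised the signal, and concentration-effect curves were fitted to fusion, red and ratio data.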

[1] = measured here: CBR red luminescence, cell number
[2] = measured here: IkBa-CBG green luminescence

## O=C(CSCc1ccccc1)Nc1ccc(Cl)cn1
[1]
  AC50: 2.91 µM [rising, partial curve]

## COC(=O)c1cc(NC(=O)c2sc3ncn(Cc4cccc(F)c4)c(=O)c3c2C)cc(C(=O)OC)c1
[1]
  AC50: 6.31 µM [rising, partial curve]

## CCn1c(SCC(=O)Nc2oc(-c3ccccc3)c(-c3ccccc3)c2C#N)nnc1-c1ccncc1
[1]
  AC50: 29.1 µM [rising, single point]

## COc1ccc(NC(=O)CSc2nc3[nH]ncc3c(=O)n2-c2ccccc2C)cc1OC
[1]
  AC50: 4.11 µM [rising, full curve, poor fit]

## Cc1cc(C)n(C(=O)CNC(=O)C2COc3ccccc3O2)n1 (stereo not drawn)
[1]
  AC50: 6.51 µM [rising, single point]

## Cc1cc(C)cc(NC(=O)N2CCc3ccccc3C2)c1
[1]
  AC50: 20 µM [falling, partial curve, poor fit]

## CC(=O)c1ccc2c(c1)Cc1cc(C(C)=O)ccc1-2
[1]
  AC50: 2.31 µM [rising, full curve]

## O=C(Nc1ccccc1)c1nc2ccccc2s1
[1]
  AC50: 4.11 µM [falling, full curve]

## Cn1sc(NC(=O)c2ccccc2)nc1=O
[1]
  AC50: 20 µM [falling, single point]

## CN(C(=O)CSc1nnc(-c2n[nH]c3ccccc23)o1)c1ccccc1
[1]
  AC50: 16.4 µM [falling, partial curve]

## COc1cccc(CN(C(=O)c2cc3ccccc3oc2=O)C2CCS(=O)(=O)C2)c1 (stereo not drawn)
[1]
  AC50: 3.55 µM [rising, partial curve, poor fit]

## C/C=C(/C)C(=O)O[C@@H]1c2c(ccc3ccc(=O)oc23)OC(C)(C)[C@@H]1OC(=O)/C(C)=C\C
[1]
  AC50: 29.1 µM [falling, single point]

## CCn1c(O)c(N=NC(=O)CNC(=O)c2ccco2)c2ccccc21
[1]
  AC50: 32.6 µM [falling, single point]

## Cc1cc(C)c(OCCn2ccnc2)c(C)c1
[1]
  AC50: 35.5 µM [rising, single point]

## COc1ccc(/C=N/n2c(SC)nnc(C(C)(C)C)c2=O)cc1OC
[1]
  AC50: 5.8 µM [rising, full curve]

## Cc1nn(C)cc1/C=N/NC(=S)Nc1ccc(Cl)cc1Cl
[1]
  AC50: 2.31 µM [rising, full curve]

## Cc1ccc(C2CC(c3ccccc3)=NN2C(=S)Nc2ccccc2)o1 (stereo not drawn)
[1]
  AC50: 10.3 µM [falling, partial curve, poor fit]

## CCOC(=O)CSc1nc2c(sc(=S)n2-c2ccccc2OC)c(=O)n1-c1ccccc1OC
[1]
  AC50: 35.5 µM [rising, single point]

## Cc1ccc(S(=O)(=O)CCC(=O)OCC(=O)c2c[nH]c3ccccc23)cc1
[1]
  AC50: 16.4 µM [falling, partial curve]

## CC1(C)CN(c2cccc(-c3ccnc4ncnn34)c2)C1=O
[1]
  AC50: 11.2 µM [rising, partial curve]

## Cc1cccc(NC(=O)c2cccc(OC(=S)N3CCOCC3)c2)c1
[1]
  AC50: 1.26 µM [falling, single point]

## CC(=O)Cn1nnc(-c2ccc(C(F)(F)F)cc2)n1
[1]
  AC50: 3.55 µM [rising, partial curve, poor fit]

## Cc1ccc(Oc2ccc(OCC(=O)NC(CC(C)C)C(=O)O)cc2)cc1 (stereo not drawn)
[1]
  AC50: 35.5 µM [falling, single point]

## COc1cc([N+](=O)[O-])ccc1NC(=O)CN1CCCC1
[1]
  AC50: 12.6 µM [falling, partial curve, poor fit]

## Cc1cccc(NC(=S)NNC(=S)NC2CCCCC2)c1C
[1]
  AC50: 14.1 µM [falling, single point]

## Cc1ccccc1CN1CCc2c(OCC(=O)N3CCCc4ccccc43)cccc2C1=O
[1]
  AC50: 29.1 µM [falling, single point]

## CCN(CC)C(=O)CC(c1ccc(N(C)C)cc1)c1c(O)cc(OC)cc1OC (stereo not drawn)
[1]
  AC50: 6.31 µM [rising, single point]

## O=C(COc1nsnc1N1CCOCC1)Nc1cccc(Cl)c1
[1]
  AC50: 35.5 µM [falling, partial curve, poor fit]

## O=C(NCCCn1ccnc1)Nc1ccc(Cl)cc1Cl
[1]
  AC50: 5.01 µM [rising, single point]

## O=C(NCCc1ccccc1)c1cccc(N2C(=O)C3CC=CCC3C2=O)c1 (stereo not drawn)
[1]
  AC50: 35.5 µM [falling, single point]

## COc1ccc(CCNC(=O)c2cnc3n(c2=O)CCS3)cc1OC
[1]
  AC50: 20.6 µM [rising, single point]

## COC(=O)/C=C/c1ccccc1S(=O)(=O)N(Cc1ccccc1)Cc1ccco1
[1]
  AC50: 17.8 µM [rising, single point]
[2]
  AC50: 22.4 µM [falling, single point]

## O=C(Nc1ccc(F)cc1)Nc1ccc(Oc2ncnc3cc(Cl)ccc23)nc1
[1]
  AC50: 0.1 µM [rising, full curve, poor fit]

## COc1ccc(-c2cc(C(C)=O)c(C)n2CCC(=O)Nc2ccc(C(F)(F)F)cc2)cc1
[1]
  AC50: 17.8 µM [rising, single point]

## CC(C)(C)C(=O)/C=c1\[nH]c(=O)/c(=C\c2ccc(F)cc2)s1
[1]
  AC50: 0.184 µM [falling, full curve, poor fit]

## O=C(O)c1cccc(NC(=S)N/N=C/c2ccccn2)c1
[1]
  AC50: 10 µM [falling, partial curve]

## O/N=C/c1cc(Cl)ccc1OCc1ccccc1Cl
[1]
  AC50: 12.6 µM [rising, single point]

## Cc1ccc2nc(-c3cccnc3SCC(=O)N3c4ccccc4CC3C)[nH]c2c1 (stereo not drawn)
[1]
  AC50: 0.82 µM [falling, full curve, poor fit]

## CC(Sc1nc(N2CCOCC2)c2c(c1C#N)CC(C)(C)OC2)C(=O)O (stereo not drawn)
[1]
  AC50: 1.78 µM [falling, partial curve, poor fit]

## COc1ccc(-c2ccc(=O)n(Cc3cccc([N+](=O)[O-])c3)n2)cc1
[1]
  AC50: 1.12 µM [falling, single point]

## C=CCOc1ccc(C(=O)Nc2ccc3c(c2)n(C)c(=O)n3C)cc1
[1]
  AC50: 22.4 µM [rising, partial curve, poor fit]
[2]
  AC50: 20 µM [falling, single point]

## O=C(N/N=C/c1c(-c2ccccc2)[nH]c2ccccc12)c1cccnc1
[1]
  AC50: 11.2 µM [falling, partial curve]

## C/C(=N\O)C1CC(CC(=O)O)C1(C)C (stereo not drawn)
[1]
  AC50: 4.47 µM [rising, single point]

## CC(=O)Oc1ccccc1-c1nc(/C=C/c2ccccc2)no1
[1]
  AC50: 10 µM [falling, partial curve]

## COc1ccc2nc(NC(=O)CSC3=NCCS3)sc2c1
[1]
  AC50: 22.4 µM [falling, single point]

## CCCC(=O)Nc1ccccc1NC(C)=O
[1]
  AC50: 0.447 µM [falling, partial curve, poor fit]

## O=C(N/N=C/c1ccco1)c1cc(C2CC2)[nH]n1
[1]
  AC50: 35.5 µM [falling, partial curve, poor fit]

## O=C(C1CCCN(S(=O)(=O)c2ccc(Br)cc2)C1)N1CCOCC1 (stereo not drawn)
[1]
  AC50: 0.112 µM [rising, full curve, poor fit]

## CC1=Nc2cc(C(=O)NCCCOC(C)C)ccc2Sc2ccc(C)cc21
[2]
  AC50: 6.31 µM [falling, full curve]

## CC(Oc1cccc(F)c1)C(=O)Nc1ccc(N2CCOCC2)cc1 (stereo not drawn)
[1]
  AC50: 29.1 µM [rising, single point]

## COc1ccc(OC)c(/C=N/NC(=O)CSc2nnc(C)n2-c2ccccc2)c1
[1]
  AC50: 7.08 µM [falling, partial curve]

## CCC(=O)N1CCN(c2nc3ccc(Br)cc3s2)CC1
[1]
  AC50: 0.562 µM [rising, full curve]

## O/N=C1\CC/C(=N\O)c2nn(-c3ccccc3Cl)nc21
[1]
  AC50: 22.4 µM [falling, single point]

## Cc1ccc(F)cc1NC(=O)/C=C/c1ccc(S(=O)(=O)N2CCOCC2)cc1
[1]
  AC50: 0.164 µM [falling, full curve]

## CCCSc1nc(=S)n(Cc2ccccc2)c(C)c1C(C)=O
[1]
  AC50: 5.01 µM [rising, single point]
[2]
  AC50: 12.6 µM [falling, single point]

## O=S(=O)(c1ccc2c(c1)nc1n2CCC1)N1CCOCC1
[1]
  AC50: 14.6 µM [falling, partial curve]

## Cc1ccc(-n2c3c(cc(C(=O)NC4CCSC4=O)c2=O)C(=O)CCC3)cc1 (stereo not drawn)
[1]
  AC50: 29.1 µM [rising, single point]

## CCOC(=O)c1nnsc1-c1ccc(-c2snnc2C(=O)OCC)cc1
[1]
  AC50: 2.82 µM [rising, partial curve, poor fit]

## CCN(Cc1ccccc1)C(=S)Nc1cc(C(=O)OC)ccc1C(=O)OC
[1]
  AC50: 0.92 µM [rising, full curve, poor fit]

## CN(C)S(=O)(=O)c1ccc(NC=C(C#N)C#N)cc1
[1]
  AC50: 35.5 µM [falling, single point]

## CCn1cc([N+](=O)[O-])c(C(=O)Nc2nc3ccc(OC)cc3s2)n1
[1]
  AC50: 10 µM [falling, partial curve]

## c1csc(-c2noc(CN3CCc4sccc4C3)n2)c1
[1]
  AC50: 0.251 µM [rising, full curve, poor fit]

## CC(C)(C)NC(=O)c1cc2c(ccc3ccccc32)oc1=O
[1]
  AC50: 5.01 µM [rising, full curve, poor fit]

## O=C(Nc1ccc(Oc2ccccc2)nc1)C1CCCCN1Cc1ccc(O)cc1 (stereo not drawn)
[1]
  AC50: 0.562 µM [rising, full curve, poor fit]

## Cc1csc(=Nc2cccnc2)n1CC1CCCCC1
[1]
  AC50: 0.82 µM [falling, partial curve, poor fit]
